Test results published in publication doi:10.1101/2023.02.10.527998.
Residue numbers refer to the chain shown, from its start. No constants are given. Whether binding was seen depends on the method and setting. In cells and extracts the contact can be indirect. Some entries that bind do so weakly or less than the wild type. Where a sequence is shown, tags or fusion partners need not be part of it.

T1: sp-myc-hSema4D (myc-tagged human Sema4D) (human) (UniProt Q92854)
T1 sequence: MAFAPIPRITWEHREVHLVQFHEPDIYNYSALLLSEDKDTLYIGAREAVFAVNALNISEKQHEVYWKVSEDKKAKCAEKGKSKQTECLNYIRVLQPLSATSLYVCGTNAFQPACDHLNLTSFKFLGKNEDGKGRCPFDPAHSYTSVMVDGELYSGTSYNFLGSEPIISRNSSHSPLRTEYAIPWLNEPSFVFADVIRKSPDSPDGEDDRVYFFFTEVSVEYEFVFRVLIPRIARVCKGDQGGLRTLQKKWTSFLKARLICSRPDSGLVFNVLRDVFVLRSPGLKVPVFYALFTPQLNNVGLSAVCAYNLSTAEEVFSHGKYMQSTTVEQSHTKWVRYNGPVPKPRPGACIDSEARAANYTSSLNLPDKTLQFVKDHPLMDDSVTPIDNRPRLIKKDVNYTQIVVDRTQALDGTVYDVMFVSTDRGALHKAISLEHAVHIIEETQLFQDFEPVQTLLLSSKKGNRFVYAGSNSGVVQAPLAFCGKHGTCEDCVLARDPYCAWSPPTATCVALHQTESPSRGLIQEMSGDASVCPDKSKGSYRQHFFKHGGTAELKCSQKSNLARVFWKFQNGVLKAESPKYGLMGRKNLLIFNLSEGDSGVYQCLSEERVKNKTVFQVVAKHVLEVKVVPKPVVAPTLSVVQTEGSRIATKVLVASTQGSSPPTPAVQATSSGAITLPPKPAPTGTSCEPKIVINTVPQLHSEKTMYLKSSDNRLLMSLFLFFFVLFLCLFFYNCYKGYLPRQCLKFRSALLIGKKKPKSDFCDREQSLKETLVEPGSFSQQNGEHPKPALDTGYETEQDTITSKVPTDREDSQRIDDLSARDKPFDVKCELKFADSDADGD

T2: sp-myc-hSema4D-Q497P (myc-tagged human Sema4D, 497P variant) (human) (UniProt Q92854)
T2 sequence: T1 sequence with Q476P

T3: N-Myc-Sema4D (addgene # 51599) (UniProt O09126)
T3 sequence: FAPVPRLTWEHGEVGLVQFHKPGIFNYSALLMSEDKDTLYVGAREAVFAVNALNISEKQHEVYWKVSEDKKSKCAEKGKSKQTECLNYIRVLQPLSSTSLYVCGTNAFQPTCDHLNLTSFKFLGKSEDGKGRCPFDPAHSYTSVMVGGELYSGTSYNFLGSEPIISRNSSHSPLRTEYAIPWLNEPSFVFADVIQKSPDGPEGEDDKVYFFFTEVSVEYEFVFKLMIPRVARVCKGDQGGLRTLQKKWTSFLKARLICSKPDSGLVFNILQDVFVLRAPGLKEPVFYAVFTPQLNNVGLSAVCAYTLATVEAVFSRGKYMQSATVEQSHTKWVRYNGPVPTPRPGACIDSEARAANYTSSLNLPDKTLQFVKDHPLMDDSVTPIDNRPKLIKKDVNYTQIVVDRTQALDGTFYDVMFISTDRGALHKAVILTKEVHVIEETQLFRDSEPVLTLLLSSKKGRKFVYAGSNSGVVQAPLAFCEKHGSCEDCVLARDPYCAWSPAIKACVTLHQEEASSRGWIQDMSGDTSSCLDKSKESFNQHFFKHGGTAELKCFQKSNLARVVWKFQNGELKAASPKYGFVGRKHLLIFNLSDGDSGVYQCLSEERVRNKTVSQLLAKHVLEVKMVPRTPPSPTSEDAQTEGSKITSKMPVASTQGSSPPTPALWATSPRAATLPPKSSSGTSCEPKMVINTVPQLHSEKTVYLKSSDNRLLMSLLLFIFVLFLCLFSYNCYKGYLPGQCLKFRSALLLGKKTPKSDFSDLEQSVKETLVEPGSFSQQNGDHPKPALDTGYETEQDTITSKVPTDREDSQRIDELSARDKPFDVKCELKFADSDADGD

T4: N-myc-Sema6A (UniProt O35464)
T4 sequence: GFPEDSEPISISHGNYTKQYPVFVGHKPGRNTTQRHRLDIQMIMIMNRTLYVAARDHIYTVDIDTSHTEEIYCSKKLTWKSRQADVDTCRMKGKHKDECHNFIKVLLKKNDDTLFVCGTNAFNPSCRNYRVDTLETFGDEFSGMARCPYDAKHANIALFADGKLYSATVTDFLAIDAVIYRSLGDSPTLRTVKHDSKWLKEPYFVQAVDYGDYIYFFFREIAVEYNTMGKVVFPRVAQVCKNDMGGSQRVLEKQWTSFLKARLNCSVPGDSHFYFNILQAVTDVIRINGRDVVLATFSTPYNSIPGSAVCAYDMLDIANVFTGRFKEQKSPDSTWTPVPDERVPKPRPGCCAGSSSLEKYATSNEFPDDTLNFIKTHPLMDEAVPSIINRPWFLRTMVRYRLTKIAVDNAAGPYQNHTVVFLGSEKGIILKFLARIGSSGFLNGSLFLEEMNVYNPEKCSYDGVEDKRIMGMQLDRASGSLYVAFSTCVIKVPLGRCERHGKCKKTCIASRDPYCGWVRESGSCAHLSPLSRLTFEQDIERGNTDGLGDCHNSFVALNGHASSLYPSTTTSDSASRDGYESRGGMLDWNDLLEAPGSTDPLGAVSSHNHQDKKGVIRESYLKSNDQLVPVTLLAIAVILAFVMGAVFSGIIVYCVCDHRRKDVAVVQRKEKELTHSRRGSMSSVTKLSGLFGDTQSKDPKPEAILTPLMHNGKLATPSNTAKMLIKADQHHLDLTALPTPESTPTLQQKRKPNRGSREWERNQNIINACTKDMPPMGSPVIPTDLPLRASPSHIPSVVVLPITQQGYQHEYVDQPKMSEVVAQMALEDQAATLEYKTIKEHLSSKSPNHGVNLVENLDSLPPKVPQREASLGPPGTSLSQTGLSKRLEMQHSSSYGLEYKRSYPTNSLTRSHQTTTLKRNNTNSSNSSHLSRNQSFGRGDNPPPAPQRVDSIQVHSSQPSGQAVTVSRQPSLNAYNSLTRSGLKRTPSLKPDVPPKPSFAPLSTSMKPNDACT

B1: C-terminal GFP tagged Sema7A (protein, UniProt Q9QUR8 45-646)
chain: QGHSRSGPRISAVWKGQDHVDFSQPEPHTVLFHEPGSFSVWVGGRGKVYHFNFPEGKNASVRTVNIGSTKGSCQDKQDCGNYITLLERRGNGLLVCGTNARKPSCWNLVNDSVVMSLGEMKGYAPFSPDENSLVLFEGDEVYSTIRKQEYNGKIPRFRRIRGESELYTSDTVMQNPQFIKATIVHQDQAYDDKIYYFFREDNPDKNPEAPLNVSRVAQLCRGDQGGESSLSVSKWNTFLKAMLVCSDAATNRNFNRLQDVFLLPDPSGQWRDTRVYGVFSNPWNYSAVCVYSLGDIDRVFRTSSLKGYHMGLPNPRPGMCLPKKQPIPTETFQVADSHPEVAQRVEPMGPLKTPLFHSKYHYQKVVVHRMQASNGETFHVLYLTTDRGTIHKVVESGDQDHSFVFNIMEIQPFHRAAAIQAISLDADRRKLYVTSQWEVSQVPLDMCEVYSGGCHGCLMSRDPYCGWDQDRCVSIYSSQRSVLQSINPAEPHRECPNPKPDEAPLQKVSLARNSRYYLTCPMESRHATYLWRHEENVEQSCEPGHQSPSCILFIENLTARQYGHYRCEAQEGSYLREAQHWELLPEDRALAEQLMGHARALA
B2: Sema4D-Flag (mouse Sema4D with a C-terminal, cytoplasmic flag tag) (protein, UniProt O09126 24-861)
chain: T3 sequence

Assays:
Assay in all cases: co-IP
[1] = biological target: T1, sp-myc-hSema4D (myc-tagged human Sema4D) (human)
[2] = biological target: T2, sp-myc-hSema4D-Q497P (myc-tagged human Sema4D, 497P variant) (human)
[3] = biological target: T3, N-Myc-Sema4D (addgene # 51599)
[4] = biological target: T4, N-myc-Sema6A

| Molecule | binding [1] | binding [2] | binding [3] | binding [4] |
| --- | --- | --- | --- | --- |
| sp-flag-hSema4D (flag-tagged human Sema4D) (from UniProt Q92854-1 22-862) | binds | binds | – | – |
| B1 | – | – | binds | binds weakly |
| B2 | – | – | binds | – |
